Test results as given in the supplement of paper PMC6411743.
± gives the standard deviation of the averaged measurements. This is a selection; strong and weak results do not stand in their true shares.

Chains of the proteins cited; added tags and fusions are not shown. Lines headed by an entry give the natural chain unless they say otherwise; changes in a name come on top.
UniProt Q0VDG4: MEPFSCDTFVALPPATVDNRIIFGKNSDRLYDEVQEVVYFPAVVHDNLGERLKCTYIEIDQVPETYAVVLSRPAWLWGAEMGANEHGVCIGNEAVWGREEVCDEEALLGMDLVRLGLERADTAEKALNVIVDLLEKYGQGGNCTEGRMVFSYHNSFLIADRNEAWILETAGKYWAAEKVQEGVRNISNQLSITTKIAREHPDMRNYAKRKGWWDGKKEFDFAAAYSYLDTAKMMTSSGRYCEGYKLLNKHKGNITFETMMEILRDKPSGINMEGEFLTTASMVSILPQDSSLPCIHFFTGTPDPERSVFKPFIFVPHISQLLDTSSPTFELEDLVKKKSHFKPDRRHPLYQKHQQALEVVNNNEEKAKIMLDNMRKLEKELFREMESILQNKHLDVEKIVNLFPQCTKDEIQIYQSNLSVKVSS
UniProt Q15283: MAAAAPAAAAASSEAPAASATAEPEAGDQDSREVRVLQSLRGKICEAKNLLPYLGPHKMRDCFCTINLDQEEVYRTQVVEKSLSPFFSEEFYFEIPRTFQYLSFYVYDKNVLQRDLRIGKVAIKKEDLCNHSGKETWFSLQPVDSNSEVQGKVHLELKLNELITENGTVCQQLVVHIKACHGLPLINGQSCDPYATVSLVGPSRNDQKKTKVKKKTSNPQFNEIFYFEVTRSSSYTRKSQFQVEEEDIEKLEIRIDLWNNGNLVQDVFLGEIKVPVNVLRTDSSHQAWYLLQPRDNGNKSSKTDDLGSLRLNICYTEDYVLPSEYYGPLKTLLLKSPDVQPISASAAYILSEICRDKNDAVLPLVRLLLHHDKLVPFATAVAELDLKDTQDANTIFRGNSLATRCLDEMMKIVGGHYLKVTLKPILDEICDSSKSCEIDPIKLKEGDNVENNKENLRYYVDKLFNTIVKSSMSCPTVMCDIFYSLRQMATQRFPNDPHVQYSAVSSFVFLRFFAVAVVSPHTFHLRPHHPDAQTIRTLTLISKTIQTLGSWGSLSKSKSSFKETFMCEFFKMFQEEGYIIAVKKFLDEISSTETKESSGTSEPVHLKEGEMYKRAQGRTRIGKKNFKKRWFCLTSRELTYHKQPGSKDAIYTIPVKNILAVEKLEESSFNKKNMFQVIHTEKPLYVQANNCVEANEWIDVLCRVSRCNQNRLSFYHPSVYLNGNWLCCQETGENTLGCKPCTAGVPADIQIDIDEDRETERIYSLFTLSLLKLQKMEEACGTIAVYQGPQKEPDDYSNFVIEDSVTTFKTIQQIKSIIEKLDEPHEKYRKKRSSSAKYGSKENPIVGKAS
UniProt Q9BUJ2: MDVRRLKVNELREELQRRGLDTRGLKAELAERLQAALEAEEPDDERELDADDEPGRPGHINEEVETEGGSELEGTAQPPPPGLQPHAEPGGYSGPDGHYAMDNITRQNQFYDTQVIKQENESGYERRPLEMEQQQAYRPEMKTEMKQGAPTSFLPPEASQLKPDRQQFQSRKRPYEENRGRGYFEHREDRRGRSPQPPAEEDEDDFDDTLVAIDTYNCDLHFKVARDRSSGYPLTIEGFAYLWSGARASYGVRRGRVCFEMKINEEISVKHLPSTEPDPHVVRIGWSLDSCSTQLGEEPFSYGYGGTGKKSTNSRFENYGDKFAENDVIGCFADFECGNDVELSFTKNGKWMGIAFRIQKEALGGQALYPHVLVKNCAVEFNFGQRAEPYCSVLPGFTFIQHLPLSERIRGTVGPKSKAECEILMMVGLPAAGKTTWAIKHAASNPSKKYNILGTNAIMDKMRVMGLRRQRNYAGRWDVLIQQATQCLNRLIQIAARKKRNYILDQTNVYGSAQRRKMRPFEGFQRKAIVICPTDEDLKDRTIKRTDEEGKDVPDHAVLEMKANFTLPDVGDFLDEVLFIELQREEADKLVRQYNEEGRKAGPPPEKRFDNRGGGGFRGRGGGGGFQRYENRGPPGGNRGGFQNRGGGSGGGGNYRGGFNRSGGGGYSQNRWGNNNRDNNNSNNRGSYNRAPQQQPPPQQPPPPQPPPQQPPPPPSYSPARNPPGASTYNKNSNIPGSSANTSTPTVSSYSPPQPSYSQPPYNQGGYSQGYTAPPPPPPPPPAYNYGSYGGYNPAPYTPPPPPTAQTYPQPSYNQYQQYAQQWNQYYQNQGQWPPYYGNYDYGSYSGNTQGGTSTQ
UniProt Q9Y314: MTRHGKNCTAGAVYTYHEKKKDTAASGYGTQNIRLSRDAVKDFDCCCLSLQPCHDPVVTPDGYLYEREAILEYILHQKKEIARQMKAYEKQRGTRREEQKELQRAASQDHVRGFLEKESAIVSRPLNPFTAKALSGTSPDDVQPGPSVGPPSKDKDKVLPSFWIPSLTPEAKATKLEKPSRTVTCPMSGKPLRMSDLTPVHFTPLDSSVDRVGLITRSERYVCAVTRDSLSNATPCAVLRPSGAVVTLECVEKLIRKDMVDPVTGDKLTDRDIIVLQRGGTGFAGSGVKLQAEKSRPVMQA
UniProt Q9UKL3: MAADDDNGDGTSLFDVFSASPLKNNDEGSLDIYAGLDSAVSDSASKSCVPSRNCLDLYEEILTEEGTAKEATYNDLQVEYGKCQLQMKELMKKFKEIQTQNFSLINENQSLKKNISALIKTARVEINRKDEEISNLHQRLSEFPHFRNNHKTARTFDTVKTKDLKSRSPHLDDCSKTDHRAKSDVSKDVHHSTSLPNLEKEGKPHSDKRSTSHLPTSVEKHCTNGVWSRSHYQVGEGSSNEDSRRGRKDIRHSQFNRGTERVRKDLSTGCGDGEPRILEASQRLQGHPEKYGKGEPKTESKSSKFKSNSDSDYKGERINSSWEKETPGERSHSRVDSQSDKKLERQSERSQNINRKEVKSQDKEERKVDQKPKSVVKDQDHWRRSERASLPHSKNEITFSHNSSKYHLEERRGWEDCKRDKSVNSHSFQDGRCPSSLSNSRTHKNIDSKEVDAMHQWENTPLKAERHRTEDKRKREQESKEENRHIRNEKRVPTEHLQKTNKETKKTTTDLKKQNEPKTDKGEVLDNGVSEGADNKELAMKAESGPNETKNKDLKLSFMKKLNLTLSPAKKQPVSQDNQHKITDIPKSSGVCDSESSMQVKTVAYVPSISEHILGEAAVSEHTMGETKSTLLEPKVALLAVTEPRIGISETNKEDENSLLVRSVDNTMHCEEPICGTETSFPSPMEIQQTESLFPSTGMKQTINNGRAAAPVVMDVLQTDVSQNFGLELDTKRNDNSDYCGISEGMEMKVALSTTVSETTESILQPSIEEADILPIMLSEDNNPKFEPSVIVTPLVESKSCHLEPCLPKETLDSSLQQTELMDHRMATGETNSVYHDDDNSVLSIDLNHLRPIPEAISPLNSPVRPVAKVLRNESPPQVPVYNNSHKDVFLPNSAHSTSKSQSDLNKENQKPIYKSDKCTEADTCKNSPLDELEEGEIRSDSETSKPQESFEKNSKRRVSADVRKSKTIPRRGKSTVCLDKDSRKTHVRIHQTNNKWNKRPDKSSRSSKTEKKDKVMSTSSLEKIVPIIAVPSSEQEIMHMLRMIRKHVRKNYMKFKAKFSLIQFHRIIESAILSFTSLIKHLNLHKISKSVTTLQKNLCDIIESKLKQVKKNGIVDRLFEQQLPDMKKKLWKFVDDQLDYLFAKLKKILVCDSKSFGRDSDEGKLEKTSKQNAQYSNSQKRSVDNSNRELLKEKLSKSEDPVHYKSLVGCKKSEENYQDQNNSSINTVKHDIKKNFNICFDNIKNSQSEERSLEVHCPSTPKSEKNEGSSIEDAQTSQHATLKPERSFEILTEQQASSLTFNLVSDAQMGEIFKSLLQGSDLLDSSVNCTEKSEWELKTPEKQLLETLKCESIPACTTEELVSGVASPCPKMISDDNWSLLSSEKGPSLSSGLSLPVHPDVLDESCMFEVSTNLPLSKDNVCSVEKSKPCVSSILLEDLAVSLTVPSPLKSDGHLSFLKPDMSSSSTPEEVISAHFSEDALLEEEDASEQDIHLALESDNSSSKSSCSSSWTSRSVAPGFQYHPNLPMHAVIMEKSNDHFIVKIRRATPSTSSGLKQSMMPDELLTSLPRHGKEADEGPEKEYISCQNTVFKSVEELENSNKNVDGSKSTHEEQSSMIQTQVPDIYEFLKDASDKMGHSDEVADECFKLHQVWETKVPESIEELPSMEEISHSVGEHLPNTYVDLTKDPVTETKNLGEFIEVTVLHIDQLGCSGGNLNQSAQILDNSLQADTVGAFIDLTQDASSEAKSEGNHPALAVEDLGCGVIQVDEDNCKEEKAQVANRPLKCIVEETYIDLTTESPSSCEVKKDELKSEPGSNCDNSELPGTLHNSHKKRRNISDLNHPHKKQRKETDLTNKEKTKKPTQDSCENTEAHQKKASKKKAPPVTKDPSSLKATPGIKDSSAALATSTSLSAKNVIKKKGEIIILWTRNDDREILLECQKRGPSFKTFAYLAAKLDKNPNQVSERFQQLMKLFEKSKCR
UniProt Q9Y4E1, whole entry: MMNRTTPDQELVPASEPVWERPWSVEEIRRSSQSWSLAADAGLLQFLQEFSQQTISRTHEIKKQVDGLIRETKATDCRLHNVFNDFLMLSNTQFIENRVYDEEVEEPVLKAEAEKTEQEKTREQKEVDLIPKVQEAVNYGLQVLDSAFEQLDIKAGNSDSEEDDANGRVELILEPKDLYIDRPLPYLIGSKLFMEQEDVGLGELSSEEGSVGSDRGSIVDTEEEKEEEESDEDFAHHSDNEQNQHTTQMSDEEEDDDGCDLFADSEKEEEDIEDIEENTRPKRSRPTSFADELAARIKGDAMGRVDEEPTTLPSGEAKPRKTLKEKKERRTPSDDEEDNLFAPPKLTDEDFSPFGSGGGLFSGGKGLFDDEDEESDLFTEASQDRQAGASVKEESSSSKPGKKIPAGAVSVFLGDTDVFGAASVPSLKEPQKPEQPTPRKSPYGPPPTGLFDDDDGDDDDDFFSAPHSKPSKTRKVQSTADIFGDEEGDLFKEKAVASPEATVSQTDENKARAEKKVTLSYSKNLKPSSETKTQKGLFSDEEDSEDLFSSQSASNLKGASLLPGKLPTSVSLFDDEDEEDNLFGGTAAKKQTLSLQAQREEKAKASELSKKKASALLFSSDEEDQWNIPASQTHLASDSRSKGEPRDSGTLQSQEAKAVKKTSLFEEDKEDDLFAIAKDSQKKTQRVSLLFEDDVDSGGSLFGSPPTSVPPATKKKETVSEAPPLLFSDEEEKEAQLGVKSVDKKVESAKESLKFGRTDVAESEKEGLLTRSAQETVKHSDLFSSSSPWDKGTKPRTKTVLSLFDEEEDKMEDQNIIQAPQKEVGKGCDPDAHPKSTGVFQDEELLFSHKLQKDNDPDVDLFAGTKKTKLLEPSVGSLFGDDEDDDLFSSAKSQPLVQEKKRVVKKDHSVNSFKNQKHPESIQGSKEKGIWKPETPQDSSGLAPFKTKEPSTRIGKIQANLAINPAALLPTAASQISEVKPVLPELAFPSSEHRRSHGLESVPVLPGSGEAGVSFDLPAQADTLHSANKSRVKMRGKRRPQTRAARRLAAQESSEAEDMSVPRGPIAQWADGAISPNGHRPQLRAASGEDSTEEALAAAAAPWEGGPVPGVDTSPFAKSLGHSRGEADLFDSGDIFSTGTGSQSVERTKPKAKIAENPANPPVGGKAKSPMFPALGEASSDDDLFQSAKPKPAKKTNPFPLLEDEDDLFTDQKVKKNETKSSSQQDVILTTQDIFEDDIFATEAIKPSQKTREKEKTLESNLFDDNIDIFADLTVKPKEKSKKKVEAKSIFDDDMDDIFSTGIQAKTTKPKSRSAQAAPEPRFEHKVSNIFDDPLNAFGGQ
UniProt O75027: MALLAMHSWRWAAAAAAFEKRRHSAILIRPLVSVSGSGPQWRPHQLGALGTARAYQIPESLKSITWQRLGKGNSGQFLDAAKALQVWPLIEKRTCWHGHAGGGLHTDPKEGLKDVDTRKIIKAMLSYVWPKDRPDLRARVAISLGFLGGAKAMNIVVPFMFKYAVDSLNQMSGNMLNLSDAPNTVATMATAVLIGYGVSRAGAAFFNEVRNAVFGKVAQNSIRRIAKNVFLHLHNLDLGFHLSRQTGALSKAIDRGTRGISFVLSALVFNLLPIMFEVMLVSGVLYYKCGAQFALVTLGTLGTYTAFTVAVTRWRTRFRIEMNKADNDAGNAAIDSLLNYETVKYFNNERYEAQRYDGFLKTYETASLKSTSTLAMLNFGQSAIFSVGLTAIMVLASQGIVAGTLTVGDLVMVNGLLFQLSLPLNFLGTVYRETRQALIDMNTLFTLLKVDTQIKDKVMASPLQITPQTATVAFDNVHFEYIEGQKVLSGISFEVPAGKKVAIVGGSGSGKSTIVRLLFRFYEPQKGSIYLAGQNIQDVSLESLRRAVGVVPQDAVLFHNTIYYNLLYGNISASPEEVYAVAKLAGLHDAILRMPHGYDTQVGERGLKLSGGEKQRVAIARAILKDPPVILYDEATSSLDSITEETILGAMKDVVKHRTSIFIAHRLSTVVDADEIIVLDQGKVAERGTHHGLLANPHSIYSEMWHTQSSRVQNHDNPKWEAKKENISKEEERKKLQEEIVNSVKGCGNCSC

Compound: Nc1ncnc2c1ncn2[C@@H]1O[C@H](COP(=O)(O)OP(=O)(O)OP(=O)(O)O)[C@@H](O)[C@H]1O [adenosine triphosphate]
Experiment: NP40-soluble protein abundance relative to vehicle (solubility fold change) (ratio); higher = more soluble protein in presence of ATP
In short: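 Each value is a fold change relative to the detergent-processed vehicle, calculated per replicate from vsn-normalised intensities. Jurkat crude lysate received eight concentrations (0.1 to 10 mM) for 10 min at room temperature and 3 min at 37 °C, then was solubilised in 0.8% NP40 with benzonase (60 min, 4 °C). The ultracentrifuged supernatant was TMT-labelled and run by LC-MS/MS in three independent experiments.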

Target	NP40-soluble protein abundance (concentration: 1mM)	NP40-soluble protein abundance (concentration: 2mM)	NP40-soluble protein abundance (concentration: 4mM)	NP40-soluble protein abundance (concentration: 6mM)	NP40-soluble protein abundance (concentration: 8mM)	NP40-soluble protein abundance (concentration: 10mM)
A0A0C4DG40|Q8NF91 and related entries (UniProt Q8NF91)	0.986 ± 0.051	1 ± 0.024	1.01 ± 0.017	1.04 ± 0.014	0.957 ± 0.024	0.9767 ± 0.0028
A0A0C4DFM0|G3V4T6 and related entries (UniProt O43708)	0.886 ± 0.13	0.888 ± 0.076	0.851 ± 0.14	0.848 ± 0.038	0.87 ± 0.11	0.8667 ± 0.0047
A0A087WW14|Q0VDG4 and related entries (UniProt Q0VDG4)	1.06 ± 0.2	1.02 ± 0.087	1.04 ± 0.15	0.961 ± 0.097	1.01 ± 0.15	1.01 ± 0.09
A0A0A0MSJ9|Q15283 and related entries (UniProt Q15283)	1.04 ± 0.083	1.02 ± 0.079	1.01 ± 0.084	0.993 ± 0.098	1.02 ± 0.068	1.01 ± 0.075
A0A0C4DGZ0|A0A087WWE2 (UniProt P24928)	1.08 ± 0.04	1.05 ± 0.011	1.055 ± 0.0062	1.06 ± 0.048	1.08 ± 0.012	1.05 ± 0.022
A0A096LP10|Q9NP73-2|A0A087WTT9|A0A087WX43|A0A096LNJ4|D6RE84 and related entries (UniProt Q9NP73)	1.16 ± 0.17	1.04 ± 0.02	1.02 ± 0.064	0.975 ± 0.039	0.971 ± 0.071	1.01 ± 0.059
A0A087WUL0|Q3LXA3 (UniProt Q3LXA3)	0.939 ± 0.029	0.971 ± 0.046	0.955 ± 0.017	0.933 ± 0.054	0.906 ± 0.025	0.934 ± 0.023
A0A087WYL7|G3V4A5 and related entries (UniProt O75586)	0.981 ± 0.054	1 ± 0.027	0.982 ± 0.05	1.02 ± 0.096	1.04 ± 0.039	0.978 ± 0.076
A0A0A0MSA9|A0A0C4DG49|P15151 and related entries (UniProt P15151)	0.994 ± 0.058	0.9601 ± 0.0073	1.01 ± 0.0016	0.9909 ± 0.0035	1.01 ± 0.044	0.894 ± 0.096
A0A0C4DFX9|Q9H3P2 (UniProt Q9H3P2)	0.999 ± 0.048	0.94 ± 0.028	0.943 ± 0.043	0.964 ± 0.053	0.929 ± 0.041	0.911 ± 0.055
A0A087WXZ7|K7EIX2 and related entries (UniProt Q6AI08)	1 ± 0.069	1.02 ± 0.027	1.04 ± 0.08	1.01 ± 0.086	0.94 ± 0.088	0.994 ± 0.033
A0A087WY55|Q9NP79 (UniProt Q9NP79)	0.964 ± 0.09	0.958 ± 0.055	0.965 ± 0.07	0.908 ± 0.056	0.95 ± 0.037	0.856 ± 0.12
A0A0A0MRA5|Q9BUJ2-2|Q9BUJ2-4|Q9BUJ2 (UniProt Q9BUJ2)	1.01 ± 0.052	1.01 ± 0.026	1.01 ± 0.042	1.05 ± 0.035	1.04 ± 0.041	1.05 ± 0.057
A0A0C4DGB1|Q9UNQ2 (UniProt Q9UNQ2)	1.17 ± 0.1	1.11 ± 0.048	1.19 ± 0.055	1.16 ± 0.059	1.34 ± 0.033	1.368 ± 0.0024
A0A0A0MS41|Q9BWM7 (UniProt Q9BWM7)	0.977 ± 0.026	0.996 ± 0.019	1.02 ± 0.035	0.996 ± 0.063	0.9784 ± 0.0083	0.998 ± 0.064
A0A087WYS9|Q15526 and related entries (UniProt Q15526)	0.988 ± 0.034	0.973 ± 0.046	0.954 ± 0.061	0.973 ± 0.074	0.975 ± 0.031	0.939 ± 0.082
A0A087WV73|P46087 and related entries (UniProt P46087)	1.13 ± 0.076	1.21 ± 0.059	1.32 ± 0.047	1.41 ± 0.11	1.44 ± 0.084	1.55 ± 0.083
A0A0A0MSK6|Q13017 and related entries (UniProt Q13017)	1.05 ± 0.065	1.02 ± 0.035	1.03 ± 0.053	1.04 ± 0.13	1.05 ± 0.078	1.02 ± 0.085
A0A087WXD1|Q96T83 (UniProt Q96T83)	0.967 ± 0.015	0.949 ± 0.044	0.953 ± 0.049	0.911 ± 0.1	0.939 ± 0.058	0.902 ± 0.16
A0A0C4DGH3|Q9Y6R0 (UniProt Q9Y6R0)	1.27 ± 0.13	1.27 ± 0.011	1.21 ± 0.089	1.19 ± 0.1	1.23 ± 0.071	1.23 ± 0.13
A0A087WTX2|Q92504 (UniProt Q92504)	0.902 ± 0.043	0.902 ± 0.051	0.893 ± 0.07	0.939 ± 0.018	0.909 ± 0.038	0.916 ± 0.019
A0A075B6F9|Q9Y314 (UniProt Q9Y314)	0.954 ± 0.013	0.9543 ± 0.0055	0.955 ± 0.021	0.996 ± 0.012	0.9895 ± 0.0073	0.991 ± 0.019
A0A0D9SGJ6|J3KQV8 and related entries (UniProt O43426)	1.04 ± 0.05	1.05 ± 0.035	1.03 ± 0.067	1.02 ± 0.044	1.01 ± 0.052	1.03 ± 0.029
A0A087WTW5|Q9UKL3 (UniProt Q9UKL3)	1.02 ± 0.03	1.04 ± 0.056	1.06 ± 0.08	1.14 ± 0.11	1.08 ± 0.055	1.12 ± 0.05
A0A0A0MT23 (UniProt P27448)	1.14 ± 0.014	1.12 ± 0.044	1.11 ± 0.033	1.06 ± 0.038	1.1 ± 0.039	1.08 ± 0.047
A0A087X1G7|A0A0B4J1S4|O60613 (UniProt O60613)	0.99 ± 0.066	0.995 ± 0.037	0.993 ± 0.12	0.972 ± 0.051	0.956 ± 0.053	0.948 ± 0.054
A0A096LPC5|A0A0A0MR88|Q9Y4E1-4|Q9Y4E1-6 (UniProt Q9Y4E1)	0.9861 ± 0.0043	0.953 ± 0.035	0.969 ± 0.069	0.962 ± 0.038	0.922 ± 0.045	0.978 ± 0.019
A0A087WW65|O75027 and related entries (UniProt O75027)	1.12 ± 0.22	1.06 ± 0.08	1.04 ± 0.078	0.957 ± 0.12	1.04 ± 0.051	1.02 ± 0.075
A0A087X0Q1|Q7Z739 (UniProt Q7Z739)	0.971 ± 0.027	0.988 ± 0.038	0.994 ± 0.05	1.01 ± 0.034	0.967 ± 0.043	0.998 ± 0.019

Another view of part of the listing above:
Target,NP40-soluble protein abundance (concentration: 1mM),NP40-soluble protein abundance (concentration: 2mM),NP40-soluble protein abundance (concentration: 4mM),NP40-soluble protein abundance (concentration: 6mM),NP40-soluble protein abundance (concentration: 8mM),NP40-soluble protein abundance (concentration: 10mM)
A0A0C4DG40|Q8NF91 and related entries (UniProt Q8NF91),0.986 ± 0.051,1 ± 0.024,1.01 ± 0.017,1.04 ± 0.014,0.957 ± 0.024,0.9767 ± 0.0028
A0A0C4DFM0|G3V4T6 and related entries (UniProt O43708),0.886 ± 0.13,0.888 ± 0.076,0.851 ± 0.14,0.848 ± 0.038,0.87 ± 0.11,0.8667 ± 0.0047
A0A087WW14|Q0VDG4 and related entries (UniProt Q0VDG4),1.06 ± 0.2,1.02 ± 0.087,1.04 ± 0.15,0.961 ± 0.097,1.01 ± 0.15,1.01 ± 0.09
A0A0A0MSJ9|Q15283 and related entries (UniProt Q15283),1.04 ± 0.083,1.02 ± 0.079,1.01 ± 0.084,0.993 ± 0.098,1.02 ± 0.068,1.01 ± 0.075
A0A0C4DGZ0|A0A087WWE2 (UniProt P24928),1.08 ± 0.04,1.05 ± 0.011,1.055 ± 0.0062,1.06 ± 0.048,1.08 ± 0.012,1.05 ± 0.022
